The results in this text go back to patent publication US20200069813A1.

Results are given in words; binding and its absence hold for the method and conditions named. Some binding calls cover weakened binding; strength is not graded here.

In the assay the target is T1, rhodamine-conjugated CGY peptide (Rh-CGY).
T1 sequence (peptide, Rhodamine B conjugated at the N-terminal): CGYRPVHNIRGHWAPG
The assay is described as follows: Co-assembly of 10 uM Rh-CGY with 5 uM FAM-GYR; NTA, electron microscopy; no disulfide bond (Western blot). On the technique in general: Immunoblotting shows a protein as a band on a membrane.

As for GYRPVHNIRGHWAPG (FAM label (position not stated; by the name at the N-terminus)) [FAM-GYR peptide], the binding result is “binds”.
